These are yes or no findings as the source states them, for the method shown. In cells and extracts the contact can be indirect. Here binding means that the protein was enriched with, or labelled near, the bait; the list need not be complete.

The chains behind the UniProt entries cited, without tags or fusion partners.
UniProt Q13049: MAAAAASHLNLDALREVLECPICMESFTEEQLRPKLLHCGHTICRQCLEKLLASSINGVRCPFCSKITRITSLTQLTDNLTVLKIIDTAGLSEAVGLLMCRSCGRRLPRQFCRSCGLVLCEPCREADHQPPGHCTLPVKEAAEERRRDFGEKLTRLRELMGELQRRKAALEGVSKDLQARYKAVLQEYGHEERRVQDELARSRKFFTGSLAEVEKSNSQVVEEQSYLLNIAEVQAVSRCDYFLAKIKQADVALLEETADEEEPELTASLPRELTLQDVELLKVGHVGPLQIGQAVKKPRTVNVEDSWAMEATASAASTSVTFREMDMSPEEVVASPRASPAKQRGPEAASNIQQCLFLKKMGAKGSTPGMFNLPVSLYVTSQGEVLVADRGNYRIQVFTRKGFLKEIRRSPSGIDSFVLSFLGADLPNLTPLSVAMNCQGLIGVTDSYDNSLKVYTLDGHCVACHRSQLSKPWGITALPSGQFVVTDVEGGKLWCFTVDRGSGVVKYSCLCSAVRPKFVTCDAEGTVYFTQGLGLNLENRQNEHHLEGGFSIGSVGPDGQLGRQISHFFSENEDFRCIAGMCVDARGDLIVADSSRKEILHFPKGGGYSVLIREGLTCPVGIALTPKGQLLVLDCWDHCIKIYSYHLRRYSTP
UniProt P0DMV8: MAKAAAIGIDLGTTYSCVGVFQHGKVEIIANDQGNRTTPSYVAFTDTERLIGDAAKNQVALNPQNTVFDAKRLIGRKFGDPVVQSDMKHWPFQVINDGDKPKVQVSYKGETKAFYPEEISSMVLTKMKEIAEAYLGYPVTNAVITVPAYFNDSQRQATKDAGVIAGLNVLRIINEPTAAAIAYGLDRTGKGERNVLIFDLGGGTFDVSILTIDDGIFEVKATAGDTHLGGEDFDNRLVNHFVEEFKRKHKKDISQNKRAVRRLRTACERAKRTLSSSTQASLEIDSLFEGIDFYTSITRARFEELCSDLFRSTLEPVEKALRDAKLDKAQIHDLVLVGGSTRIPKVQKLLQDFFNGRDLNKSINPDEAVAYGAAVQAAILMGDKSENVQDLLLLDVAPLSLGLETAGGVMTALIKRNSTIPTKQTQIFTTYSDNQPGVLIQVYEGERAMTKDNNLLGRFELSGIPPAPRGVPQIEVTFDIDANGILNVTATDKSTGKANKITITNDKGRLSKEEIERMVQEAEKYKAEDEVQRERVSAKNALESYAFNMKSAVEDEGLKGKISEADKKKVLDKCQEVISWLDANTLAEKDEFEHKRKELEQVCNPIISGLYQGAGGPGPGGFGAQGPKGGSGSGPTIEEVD

In the assay the target is MEF (myc-TEV-FLAG)-tagged TRIM32 (human) (UniProt Q13049). Briefly: affinity purification with mass spectrometry; MEF-TRIM32 overexpressed in HEK293, normal culture conditions, no PKA activator; lysate immunoprecipitated with anti-myc Sepharose, released with TEV protease, immunoprecipitated with anti-FLAG Sepharose, eluted with FLAG peptide; tryptic digest, LC-MSe.

For “endogenous HSP70 (HSPA1A) (from UniProt P0DMV8 1-641)”, the binding entry is recorded as “binds”.

The record behind these values is article PMC5215751.
